Source: PMC11405040, “PRMT5-mediated FUBP1 methylation accelerates prostate cancer progression” (The Journal of Clinical Investigation, 2024)
No constants are given. Whether binding was seen depends on the method and setting. In cells and extracts the contact can be indirect. Some entries that bind do so weakly or less than the wild type.

Chains of the proteins cited; added tags and fusions are not shown.
UniProt Q96AE4: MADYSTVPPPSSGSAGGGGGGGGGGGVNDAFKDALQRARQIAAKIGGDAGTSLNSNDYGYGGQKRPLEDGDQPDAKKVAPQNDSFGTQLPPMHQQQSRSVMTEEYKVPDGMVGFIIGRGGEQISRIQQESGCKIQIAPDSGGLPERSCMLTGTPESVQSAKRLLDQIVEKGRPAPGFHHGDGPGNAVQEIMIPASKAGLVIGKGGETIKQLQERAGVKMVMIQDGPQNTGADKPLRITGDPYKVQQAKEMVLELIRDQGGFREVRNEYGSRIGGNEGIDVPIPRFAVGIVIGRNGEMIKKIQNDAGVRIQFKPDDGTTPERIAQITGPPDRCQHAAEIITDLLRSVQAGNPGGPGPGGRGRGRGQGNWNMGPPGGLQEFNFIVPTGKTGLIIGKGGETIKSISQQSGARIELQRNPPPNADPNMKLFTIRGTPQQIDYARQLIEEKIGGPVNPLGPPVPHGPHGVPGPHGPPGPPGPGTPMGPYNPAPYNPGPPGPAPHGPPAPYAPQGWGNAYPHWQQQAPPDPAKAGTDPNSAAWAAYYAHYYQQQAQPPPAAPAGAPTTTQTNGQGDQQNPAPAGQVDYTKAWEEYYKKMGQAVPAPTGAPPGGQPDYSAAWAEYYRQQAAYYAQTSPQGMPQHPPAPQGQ
UniProt O14744: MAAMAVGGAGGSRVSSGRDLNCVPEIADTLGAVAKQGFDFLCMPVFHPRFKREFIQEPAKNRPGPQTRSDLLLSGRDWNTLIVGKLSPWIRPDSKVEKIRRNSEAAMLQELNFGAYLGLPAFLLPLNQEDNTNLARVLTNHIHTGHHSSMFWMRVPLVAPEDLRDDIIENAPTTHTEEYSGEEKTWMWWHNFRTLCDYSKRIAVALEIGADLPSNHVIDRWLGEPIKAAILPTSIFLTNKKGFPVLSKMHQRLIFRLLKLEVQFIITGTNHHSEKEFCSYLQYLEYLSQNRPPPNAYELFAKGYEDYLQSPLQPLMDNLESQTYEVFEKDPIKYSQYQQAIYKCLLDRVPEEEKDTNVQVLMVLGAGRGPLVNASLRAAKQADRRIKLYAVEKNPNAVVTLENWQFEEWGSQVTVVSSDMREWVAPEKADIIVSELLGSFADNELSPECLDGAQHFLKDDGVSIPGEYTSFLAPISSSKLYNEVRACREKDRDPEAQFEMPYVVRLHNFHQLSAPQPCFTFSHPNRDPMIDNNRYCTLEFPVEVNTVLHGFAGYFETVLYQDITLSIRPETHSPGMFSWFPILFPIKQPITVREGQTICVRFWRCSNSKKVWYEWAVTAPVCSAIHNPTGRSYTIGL

Experiments:
[1] = molecular target: Far-upstream element (FUSE)-binding protein 1 (FUBP1), endogenous (human (endogenous in LNCaP and C4-2; the other cell lines of Figure 2I are not given)) (UniProt Q96AE4); experiment: co-IP; FUBP1 and PRMT5 in LNCaP and C4-2 cells with or without nanocomplex-delivered PUBLISH^WT or PUBLISH^3K peptide; the method is not named for this panel
[2] = molecular target: Far-upstream element (FUSE)-binding protein 1 (FUBP1), endogenous (human (endogenous in LNCaP and C4-2; the other cell lines of Figure 2I are not given)) (UniProt Q96AE4); experiment: co-IP; endogenous proteins, different cell lines; 0.3%-0.5% NP-40 lysis buffer (50 mM Tris-HCl pH 8.0, 150 mM NaCl, 1 mM DTT), primary antibody 8 h at 4°C, protein A beads

PRMT5, endogenous (from UniProt O14744 1-637) (enzyme)
binding [1]: binds
binding [2]: binds
